Literature values, collected in patent US20170027865A1, “Dry Pharmaceutical Compositions for Topical Delivery of Oral Medications, Nasal Delivery and to Treat Ear Disorders” (CMPD LICENSING LLC, priority 2013, published 2017).
For at least one compound, name, drawing or mass did not settle the structure.

How the values were obtained:
[1] = test system: Trichophyton mentagrophytes
Enterobacter aerogenes = details: Gram: neg
Klebsiella oxytoca = details: Gram: neg
Streptococcus pyogenes = details: Gram: pos
Bacteroides fragilis = details: Gram: anaer
[2] = test system: Klebsiella (Calymmatobacterium) granulomatis; details: Gram: neg
Streptococcus pneumoniae = details: Gram: pos
Bartonella bacilliformis = details: Gram: neg
Haemophilus ducreyi = details: Gram: neg
Neisseria meningitidis = details: Gram: neg
Acinetobacter lwoffii = details: Gram: neg
Chlamydia trachomatis = details: Gram: n/a
Pseudomonas aeruginosa = details: Gram: neg
Campylobacter jejuni = details: Gram: neg
Mycoplasma pneumoniae = details: Gram: n/a
Enterobacter cloacae = details: Gram: neg
[3] = test system: Viridans group streptococci; details: Gram: pos
Proteus mirabilis = details: Gram: neg
Acinetobacter baumannii = details: Gram: neg
Providencia stuartii = details: Gram: neg
Chlamydia pneumoniae = details: Gram: n/a
[4] = test system: Acinetobacter calcoaceticus; details: Gram: neg
Klebsiella pneumoniae = details: Gram: neg
Citrobacter freundii = details: Gram: neg
Enterococcus faecalis = details: Gram: pos
Peptostreptococcus = details: Gram: pos
Morganella morganii = details: Gram: neg
Escherichia coli = details: Gram: neg
Enterobacter sakazakii = details: Gram: neg
Vibrio cholerae = details: Gram: neg
Providencia rettgeri = details: Gram: neg
Haemophilus influenzae = details: Gram: neg
Moraxella catarrhalis = details: Gram: neg
Neisseria gonorrhoeae = details: Gram: neg
[5] = test system: Staphylococcus epidermidis; details: Gram: pos
Enterococcus faecium = details: Gram: pos
Shigella dysenteriae = details: Gram: neg
[6] = test system: Haemophilus parainfluenzae; details: Gram: neg
Proteus vulgaris = details: Gram: neg
Citrobacter diversus = details: Gram: neg
Serratia marcescens = details: Gram: neg
Salmonella typhi = details: Gram: neg
[7] = test system: Staphylococcus aureus (MSSA); details: Gram: pos
[8] = test system: Methicillin Resistant Staph aureus (MRSA); details: Gram: pos
Streptococcus agalactiae = details: Gram: pos
[9] = test system: Corynebacterium urealyticum; details: Gram: pos
Corynebacterium jeikeium = details: Gram: pos
Pseudomonas fluorescens = details: Gram: neg
Bordetella pertussis = details: Gram: neg

Compound: CCC(C)n1ncn(-c2ccc(N3CCN(c4ccc(OCC5COC(Cn6cncn6)(c6ccc(Cl)cc6Cl)O5)cc4)CC3)cc2)c1=O (centres unmarked) [Itraconazole, itraconazole]
- Expected coverage (Cryptococcus neoformans): yes
- Expected coverage (Aspergillus flavus): yes
- Expected coverage (Sporothrix schenckii): yes
- Expected coverage (Candida species): yes
- Expected coverage (Aspergillus fumigatus): yes
- Expected coverage (Trichophyton rubrum): yes
- Expected coverage [1]: yes
- Expected coverage (Blastomyces dermatitidis): yes

Compound: C[C@H]1c2cccc(O)c2C(=O)C2=C(O)[C@]3(O)C(=O)C(C(N)=O)=C(O)[C@@H](N(C)C)[C@@H]3[C@@H](O)[C@@H]21 [Doxycycline, doxycycline]
- Expected coverage (Enterobacter aerogenes): ±
- Expected coverage (Klebsiella oxytoca): ±
- Expected coverage (Streptococcus pyogenes): ±
- Expected coverage (Bacteroides fragilis): ±
- Expected coverage [2]: yes
- Expected coverage (Streptococcus pneumoniae): yes
- Expected coverage (Bartonella bacilliformis): yes
- Expected coverage (Haemophilus ducreyi): yes
- Expected coverage (Neisseria meningitidis): yes
- Expected coverage (Acinetobacter lwoffii): no
- Expected coverage (Chlamydia trachomatis): yes
- Expected coverage (Pseudomonas aeruginosa): no
- Expected coverage (Campylobacter jejuni): yes
- Expected coverage (Mycoplasma pneumoniae): ±
- Expected coverage (Enterobacter cloacae): ±
- Expected coverage [3]: ±
- Expected coverage (Proteus mirabilis): no
- Expected coverage (Acinetobacter baumannii): no
- Expected coverage (Providencia stuartii): no
- Expected coverage (Chlamydia pneumoniae): yes
- Expected coverage [4]: ±
- Expected coverage (Klebsiella pneumoniae): ±
- Expected coverage (Citrobacter freundii): no
- Expected coverage (Enterococcus faecalis): no
- Expected coverage (Peptostreptococcus): ±
- Expected coverage (Morganella morganii): no
- Expected coverage (Escherichia coli): ±
- Expected coverage (Enterobacter sakazakii): ±
- Expected coverage (Vibrio cholerae): yes
- Expected coverage (Providencia rettgeri): no
- Expected coverage (Haemophilus influenzae): yes
- Expected coverage (Moraxella catarrhalis): yes
- Expected coverage (Neisseria gonorrhoeae): ±
- Expected coverage [5]: yes
- Expected coverage (Enterococcus faecium): no
- Expected coverage (Shigella dysenteriae): ±
- Expected coverage [6]: yes
- Expected coverage (Proteus vulgaris): no
- Expected coverage (Citrobacter diversus): no
- Expected coverage (Serratia marcescens): no
- Expected coverage (Salmonella typhi): ±
- Expected coverage [7]: ±
- Expected coverage [8]: ±
- Expected coverage (Streptococcus agalactiae): ±
- Expected coverage [9]: ±

Compound: CCC[C@@H]1C[C@@H](C(=O)N[C@@H]([C@H]2O[C@H](SC)[C@H](O)[C@@H](O)[C@H]2O)[C@H](C)Cl)N(C)C1 [Clindamycin, clindamycin]
- Expected coverage (Streptococcus pyogenes): yes
- Expected coverage (Bacteroides fragilis): yes
- Expected coverage (Streptococcus pneumoniae): yes
- Expected coverage [3]: yes
- Expected coverage (Chlamydia pneumoniae): ±
- Expected coverage (Peptostreptococcus): yes
- Expected coverage [5]: yes
- Expected coverage [7]: yes
- Expected coverage (Streptococcus agalactiae): yes

Compound: C[C@H]1COc2c(N3CCN(C)CC3)c(F)cc3c(=O)c(C(=O)O)cn1c23 [Levofloxacin, levofloxacin]
- Expected coverage (Enterobacter aerogenes): yes
- Expected coverage (Klebsiella oxytoca): yes
- Expected coverage (Streptococcus pyogenes): yes
- Expected coverage (Bacteroides fragilis): no
- Expected coverage (Streptococcus pneumoniae): yes
- Expected coverage (Bartonella bacilliformis): yes
- Expected coverage (Neisseria meningitidis): yes
- Expected coverage (Acinetobacter lwoffii): ±
- Expected coverage (Pseudomonas aeruginosa): yes
- Expected coverage (Campylobacter jejuni): yes
- Expected coverage (Mycoplasma pneumoniae): yes
- Expected coverage (Corynebacterium jeikeium): no
- Expected coverage (Enterobacter cloacae): yes
- Expected coverage [3]: yes
- Expected coverage (Proteus mirabilis): yes
- Expected coverage (Acinetobacter baumannii): ±
- Expected coverage (Providencia stuartii): yes
- Expected coverage (Chlamydia pneumoniae): yes
- Expected coverage [4]: ±
- Expected coverage (Klebsiella pneumoniae): yes
- Expected coverage (Citrobacter freundii): yes
- Expected coverage (Enterococcus faecalis): yes
- Expected coverage (Peptostreptococcus): ±
- Expected coverage (Morganella morganii): yes
- Expected coverage (Escherichia coli): yes
- Expected coverage (Enterobacter sakazakii): yes
- Expected coverage (Vibrio cholerae): yes
- Expected coverage (Providencia rettgeri): yes
- Expected coverage (Haemophilus influenzae): yes
- Expected coverage (Moraxella catarrhalis): yes
- Expected coverage (Pseudomonas fluorescens): yes
- Expected coverage (Neisseria gonorrhoeae): yes
- Expected coverage [5]: yes
- Expected coverage (Enterococcus faecium): no
- Expected coverage (Shigella dysenteriae): yes
- Expected coverage (Bordetella pertussis): ±
- Expected coverage [6]: yes
- Expected coverage (Proteus vulgaris): yes
- Expected coverage (Citrobacter diversus): yes
- Expected coverage (Serratia marcescens): yes
- Expected coverage (Salmonella typhi): yes
- Expected coverage [7]: yes
- Expected coverage [8]: no
- Expected coverage (Streptococcus agalactiae): yes
- Expected coverage [9]: ±
